Reference: patent US20180177845A1, “METHOD FOR TREATMENT OR PREVENTION OF A CANCER” (priority 2016, published 2018)
Results are given in words; binding and its absence hold for the method and conditions named. Binding seen in cells or lysates may run through a third protein. Some binding calls cover weakened binding; strength is not graded here. Sequences can lack the tags named with a protein.

Sequences of proteins named here, by UniProt entry; tags and fusion partners are left off. Residues count along the entry.
UniProt P16144, residues 28-1822: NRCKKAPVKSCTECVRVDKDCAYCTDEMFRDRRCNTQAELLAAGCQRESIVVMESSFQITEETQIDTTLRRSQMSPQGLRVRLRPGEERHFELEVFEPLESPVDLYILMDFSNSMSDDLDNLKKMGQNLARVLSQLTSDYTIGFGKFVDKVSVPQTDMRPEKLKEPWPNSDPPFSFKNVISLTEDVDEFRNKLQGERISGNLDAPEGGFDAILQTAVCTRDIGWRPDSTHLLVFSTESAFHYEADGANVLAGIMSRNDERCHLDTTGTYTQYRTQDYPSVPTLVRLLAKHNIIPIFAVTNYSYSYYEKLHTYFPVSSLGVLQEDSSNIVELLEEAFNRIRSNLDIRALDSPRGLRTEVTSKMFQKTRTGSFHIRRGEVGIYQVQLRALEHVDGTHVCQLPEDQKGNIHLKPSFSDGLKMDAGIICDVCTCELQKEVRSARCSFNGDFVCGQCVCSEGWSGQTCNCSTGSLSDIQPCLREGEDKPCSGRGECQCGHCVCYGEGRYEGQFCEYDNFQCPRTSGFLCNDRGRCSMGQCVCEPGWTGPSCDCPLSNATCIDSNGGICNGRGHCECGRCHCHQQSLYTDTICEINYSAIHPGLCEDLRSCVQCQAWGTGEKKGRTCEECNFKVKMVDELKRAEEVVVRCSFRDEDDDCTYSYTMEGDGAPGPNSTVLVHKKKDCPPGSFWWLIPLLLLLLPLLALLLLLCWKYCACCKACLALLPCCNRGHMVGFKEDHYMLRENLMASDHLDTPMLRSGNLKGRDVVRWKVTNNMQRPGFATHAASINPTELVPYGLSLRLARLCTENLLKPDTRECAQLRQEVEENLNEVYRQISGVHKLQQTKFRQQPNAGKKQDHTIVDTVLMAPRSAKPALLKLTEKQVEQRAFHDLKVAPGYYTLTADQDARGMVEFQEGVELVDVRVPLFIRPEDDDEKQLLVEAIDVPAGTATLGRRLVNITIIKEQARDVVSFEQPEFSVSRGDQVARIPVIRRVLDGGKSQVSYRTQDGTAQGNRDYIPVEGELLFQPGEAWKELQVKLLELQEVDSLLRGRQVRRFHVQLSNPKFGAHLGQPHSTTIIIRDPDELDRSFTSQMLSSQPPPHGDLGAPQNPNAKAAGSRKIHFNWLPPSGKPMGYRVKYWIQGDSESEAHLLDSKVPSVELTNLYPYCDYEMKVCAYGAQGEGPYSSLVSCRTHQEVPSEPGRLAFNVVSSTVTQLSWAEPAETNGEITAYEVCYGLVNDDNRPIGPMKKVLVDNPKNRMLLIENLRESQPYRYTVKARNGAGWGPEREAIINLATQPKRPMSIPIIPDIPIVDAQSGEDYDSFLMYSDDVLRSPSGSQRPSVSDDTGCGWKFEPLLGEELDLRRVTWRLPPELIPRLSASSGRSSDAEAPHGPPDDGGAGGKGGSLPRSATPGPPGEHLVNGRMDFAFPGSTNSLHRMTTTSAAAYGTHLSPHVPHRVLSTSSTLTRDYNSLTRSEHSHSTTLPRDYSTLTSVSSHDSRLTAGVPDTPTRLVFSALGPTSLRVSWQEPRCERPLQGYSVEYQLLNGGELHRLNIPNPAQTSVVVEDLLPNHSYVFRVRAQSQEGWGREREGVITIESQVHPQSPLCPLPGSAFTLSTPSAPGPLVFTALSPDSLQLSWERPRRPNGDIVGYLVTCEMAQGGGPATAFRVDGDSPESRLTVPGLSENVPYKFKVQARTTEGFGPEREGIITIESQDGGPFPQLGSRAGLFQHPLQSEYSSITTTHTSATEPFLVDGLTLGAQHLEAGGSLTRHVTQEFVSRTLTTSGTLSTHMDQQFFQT

Experiments:
β4 integrin (human) [1] = target: β4 integrin (human) (UniProt P16144); assay: co-immunoprecipitation with β4 integrin at rising FAK/25aa expression, MDA-MB-231 cells (FIG. 4(a))
β4 integrin (human) [2] = target: β4 integrin (human) (UniProt P16144); assay: co-immunoprecipitation with β4 integrin in MDA-MB-231 cells; competitor full-length FAK (FIG. 4(a))
β4 integrin (human) [3] = target: β4 integrin (human) (UniProt P16144); assay: overexpression in MDA-MB-231 cells, co-immunoprecipitation

binding (β4 integrin (human) [1]): binds
binding (β4 integrin (human) [2]): binds
binding (β4 integrin (human) [3]): binds
B1: GFP-tagged FAK/25aa (peptide, not shown: large carriers)
chain: LANNEKQGVRSHTVSVSETDDYAEI
